Library screening results

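Viability assay of Plasmodium falciparum sporozoites; the read-out is not stated. The concentration is filed as 10 mM, unlikely as a test dose, so the dose is not known. Direction is inferred from retests: higher values go with lower viability. Strong results were mostly tested again. Size under these conditions: about 34,000 compounds, about 280 of them at 50% or above in at least one test.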

Results are given as percent effect. How 0% and 100% were set is not recorded. Most values in the screen are low, and negative values occur. The compounds are a random part of those screened. Two or more numbers in one place are separate tests of the same structure; such repeats can differ widely.

CCOC(=O)[C@H]1[C@@H](O)C(=O)N(C)C12CCN(S(=O)(=O)CC)CC2 gave 8.517%.
Cc1cc(NC(=O)CCN2CCCC2Cn2cncn2)no1 (stereo not drawn) gave -8.353%.
Cc1ccc(C(CNCC2CC2)N2CCOCC2)s1 (stereo not drawn) gave -13.83% & 11.27% & -8.638%.
CCOCCCn1c(NC(=O)c2scnc2C)nc2ccccc21 gave -1.799%.
Cc1ccccc1-c1cncc(C2CCN(CC(=O)N(C)C)CC2)n1 gave 6.329%.
Cc1nc(Nc2nnc(C)s2)cc(C2CCCN2C)n1 (stereo not drawn) gave -4.037%.
CN(C)c1ncc(CN2CCC(O)(c3ccccc3F)CC2)cn1.O=C(O)CC(O)(CC(=O)O)C(=O)O gave -10.78%.
Cc1nccc(-c2cccc(NCC(=O)N3CCCC(C)C3)c2)n1 (stereo not drawn) gave -6.732%.
COCCNC(=O)c1cc(-n2cccc2)ccc1Cl gave -5.54%.
CNC(=O)[C@@H]1C[C@@H](NC(=O)Cc2nonc2C)CN1Cc1sccc1C gave -4.71%.
Cc1cc(C2CCCN(C(=O)CN3CCN(C)CC3)C2)n[nH]1 (stereo not drawn) gave 3.425%.
CN1CCN([C@@H]2CN(C(=O)c3cc4ccc(F)cc4[nH]3)C[C@H]2O)CC1 gave 7.546%.
CCn1ncnc1C1CC(=O)NCc2nc3ccccn3c21 (stereo not drawn) gave 10.5%.
Cc1nnc(CN2CCCC(c3noc(C4CC4)n3)C2)o1 (stereo not drawn) gave -140.3%.
CCCOC(=O)N1CCn2nc(-c3nc4ccccc4n3C)cc2C1 gave 47.05% & 19.27%.
O=C(COc1cccc(F)c1)N1CCCCC1c1ccn2ccnc2n1 (stereo not drawn) gave 9.327%.
CC(O)CN1CCC(CNCc2ccc(C(N)=O)cc2)CC1 (stereo not drawn) gave 0.9015%.
CC1CCN(CCNC(=O)c2ccn(-c3ccc(F)cc3)n2)CC1 gave 7.598%.
Cc1ccsc1CNC(=O)Cc1c(C)nc2c(c1C)c(=O)[nH]n2C gave -16.65%.
CC(C)C(=O)N1CCN(Cc2csc(-c3ncccn3)n2)CC1 gave 77.28% & 53.85% & 54.68%.
CN(C)c1cc(CC(NC(=O)C2CC2)c2ccccc2)nc(C2CC2)n1 (stereo not drawn) gave 15.35%.
CC(C)Oc1cccc(CNC(Cc2ccsc2)c2nccs2)c1.Cl (stereo not drawn) gave -11.8%.
[H][C@@]12CS(=O)(=O)C[C@]1([H])N(C(=O)NCC)CCN2Cc1ccc(CCC)o1 gave 4.013%.
Cc1ccc(F)cc1NS(=O)(=O)c1cc2c(c(C(=O)O)c1)OCCO2 gave -1.14%.
CCn1cc(NC(=O)NCc2ccc3c(c2)OCO3)cn1 gave 11.51% & 4.862% & 5.959%.
O=C(NCCN1C(=O)c2ccccc2C1=O)c1scnc1Cl gave 2.892%.
O=C(NCCOc1ccc2c(c1)OCO2)C1CC(=O)N(C2CC2)C1 (stereo not drawn) gave -5.698%.
Cc1ncsc1C(=O)NCCSCc1cccs1 gave 0.08354%.
N#Cc1cccc(S(=O)(=O)N2CCCCC2C(N)=O)c1 (stereo not drawn) gave -14.46%.
N#CCCN(C(=O)CN1CCCC1c1cccs1)c1ccccc1F (stereo not drawn) gave 13.49%.
[H][C@@]12C[C@@H](c3nc(C)cs3)O[C@]1([H])CN(C(=O)c1cc(C)nn1CC)C2 gave 14.3%.
Cn1cccc1C(=O)N1CCCC2(CCN(CCN3CCCC3)C2=O)C1.O=C(O)C(F)(F)F (stereo not drawn) gave -3.272%.
O=C(O)C(F)(F)F.O=C(c1cccc(Cl)c1)N1CCCn2c(CN3CCCCC3)nnc2C1 gave -12.8%.
CC(C)c1ncc(CN2C[C@@H](CN3CCC(CO)CC3)[C@@H](CO)C2)cn1 gave 0.8584%.
O=C(O)C(F)(F)F.[H][C@@]12OCCN(Cc3ccoc3)[C@@]1([H])CC[C@H]2OCC gave 5.592%.
CCC(NC(N)=O)c1ccccc1OCC(=O)N1CCCC1 (stereo not drawn) gave 9.984% & -29.78% & -27.72%.
Cc1ccc(CN(CCCN2CCOCC2)Cc2[nH]cnc2C)o1.O=C(O)CC(O)(CC(=O)O)C(=O)O gave 5.578%.
CC1CN(Cc2noc(C3CC3)n2)CCN1Cc1nccn1C (stereo not drawn) gave -5.51%.
Cc1nccn1CC1CCCN(C(=O)c2cnn(C)c2)C1 (stereo not drawn) gave -0.254%.
[H][C@@]12COC[C@]1(CNS(C)(=O)=O)CN(C(=O)N(C)C)C2 gave -16.91%.
CCc1nn2c(=N)c(C#N)n[nH]c2c1-c1ccc(OC)cc1 gave -1.74%.
O=C(c1ccc[nH]1)N1CCCn2c(nnc2Cn2cccn2)C1 gave 10.19%.
Cc1nc(CN2CCC3(CC2)NC(=O)CC3c2ccncc2)cs1.O=C(O)C(F)(F)F.O=C(O)C(F)(F)F (stereo not drawn) gave 1.444%.
c1ccc(-c2noc([C@@H]3Cc4nc[nH]c4CN3)n2)cc1 gave 8.153% & 22.58%.
CN1CC2(CCCN(C(=O)c3cnc4ccc(F)cc4c3O)C2)OC1=O (stereo not drawn) gave -4.615%.
c1ccc(-n2nnnc2CN2CCCC(Cn3cncn3)C2)cc1 (stereo not drawn) gave 4.535%.
CC(=O)Nc1nc(C(=O)N2CCCC(n3nc(C)cc3C)C2)cs1 (stereo not drawn) gave 11.65%.
CCn1ncc2c1CCCC2NCc1cccc2c1OCO2 (stereo not drawn) gave 87.89% & 80.38% & 88.9%.
CCc1nc(C2CCCN2Cc2nnc(Cc3ccccc3)o2)no1 (stereo not drawn) gave 1.618%.

Once more, the final 5:

CN1CC2(CCCN(C(=O)c3cnc4ccc(F)cc4c3O)C2)OC1=O (stereo not drawn) gave -4.615%.
c1ccc(-n2nnnc2CN2CCCC(Cn3cncn3)C2)cc1 (stereo not drawn) gave 4.535%.
CC(=O)Nc1nc(C(=O)N2CCCC(n3nc(C)cc3C)C2)cs1 (stereo not drawn) gave 11.65%.
CCn1ncc2c1CCCC2NCc1cccc2c1OCO2 (stereo not drawn) gave 87.89% & 80.38% & 88.9%.
CCc1nc(C2CCCN2Cc2nnc(Cc3ccccc3)o2)no1 (stereo not drawn) gave 1.618%.

From ChEMBL document CHEMBL3988442, “University of Dundee, Small-Polar-MMV Screening Library” (2021).